Measurements reported in PubChem BioAssay AID1224826 (NIAID, 2016)

Assay: 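Knock-downs that raise or lower Tnf reporter signal after endotoxin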 (primary screen)
Cells: RAW264.7 G9 macrophages from mouse bearing reporters for p65 (GFP) and the Tnf promoter (mCherry)
Reagent: siRNA pool against mouse genes, 100 nM
Duration: 16 h of LPS stimulation, after 2 days of siRNA transfection
Challenge: bacterial lipopolysaccharide (Salmonella minnesota R595), 10 ng/ml
Measurement: 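Nuclear mCherry signal of the Tnf promoter reporter measured by imaging after background removal, scaled to each plate median and turned into robust z-scores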
Reading the numbers: Tnf reporter robust z-score: higher = stronger Tnf promoter reporter signal after LPS; Tnf reporter intensity: higher = stronger Tnf promoter reporter signal
Active means: 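a well counts as active at a score of -1.3 or below (Tlr4 knock-down control median) or above 3 (raised signal); controls and wells holding fewer than 50 cells are excluded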
Meaning of the calls: active = Tnf reporter clearly lowered or raised; inactive = no clear change in Tnf reporter
In all, the deposit lists about 17,000 reagents; this is a part drawn at random. About 1,110 of all reagents (6.6%) were called active. 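Active means lowered or raised reporter signal; replicate intensities are raw and not normalised per plate.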 A number with no mark means an inactive call. The numbers tell different reagents against one gene apart. Not all columns of the deposit are shown.

The opening 7 records, to show the layout:
| Target gene | reagent no. | Tnf reporter robust z-score | fewer than 50 cells in well | Tnf reporter intensity, replicate 1 |
| --- | --- | --- | --- | --- |
| Gbp9 (guanylate-binding protein 9) | 1 | -1.36 (active) | enough cells in well | 88.2 |
| Chrdl2 (chordin-like 2) | 1 | -1.18 | enough cells in well | 65.5 |
| Ptprg (protein tyrosine phosphatase receptor type G) | 1 | 0.08 | enough cells in well | 222 |
| Harbi1 (harbinger transposase derived 1) | 1 | 0.5 | enough cells in well | 224 |
| Dcbld1 (discoidin, CUB and LCCL domain containing 1) | 1 | 1.78 | enough cells in well | 298 |
| Mfap5 (microfibrillar associated protein 5) | 1 | -0.13 | enough cells in well | 199 |
| Entpd1 (ectonucleoside triphosphate diphosphohydrolase 1) | 1 | 0.72 | enough cells in well | 296 |

Results, from the first entry:
| Target gene | reagent no. | Tnf reporter robust z-score | fewer than 50 cells in well | Tnf reporter intensity, replicate 1 |
| --- | --- | --- | --- | --- |
| Gbp9 (guanylate-binding protein 9) | 1 | -1.36 (active) | enough cells in well | 88.2 |
| Chrdl2 (chordin-like 2) | 1 | -1.18 | enough cells in well | 65.5 |
| Ptprg (protein tyrosine phosphatase receptor type G) | 1 | 0.08 | enough cells in well | 222 |
| Harbi1 (harbinger transposase derived 1) | 1 | 0.5 | enough cells in well | 224 |
| Dcbld1 (discoidin, CUB and LCCL domain containing 1) | 1 | 1.78 | enough cells in well | 298 |
| Mfap5 (microfibrillar associated protein 5) | 1 | -0.13 | enough cells in well | 199 |
| Entpd1 (ectonucleoside triphosphate diphosphohydrolase 1) | 1 | 0.72 | enough cells in well | 296 |
| Scfd2 (Sec1 family domain containing 2) | 1 | 2.49 | enough cells in well | 195 |
| Trmt5 (TRM5 tRNA methyltransferase 5) | 1 | -1.29 | enough cells in well | 143 |
| Ccbe1 (collagen and calcium binding EGF domains 1) | 1 | -0.78 | enough cells in well | 149 |
| Capza1 (capping actin protein of muscle Z-line subunit alpha 1) | 1 | 0.51 | enough cells in well | 166 |
| Vbp1 (von Hippel-Lindau binding protein 1) | 1 | 0.08 | enough cells in well | 185 |
| Nanp (N-acetylneuraminic acid phosphatase) | 1 | 2.52 | enough cells in well | 288 |
| Ifna2 (interferon alpha 2) | 1 | -0.62 | enough cells in well | 219 |
| Atp7b (ATPase, copper transporting, beta polypeptide) | 1 | -0.08 | enough cells in well | 150 |
| Syt15 (synaptotagmin XV) | 1 | – | fewer than 50 cells per well; well left out of calls | 89.4 |
| Zfp503 (zinc finger protein 503) | 1 | -0.85 | enough cells in well | 92.7 |
| Vcf1 (VCP nuclear cofactor family member 1) | 1 | -0.12 | enough cells in well | 126 |
| Rad54l2 (RAD54 like 2 (S. cerevisiae)) | 1 | 0.13 | enough cells in well | 56.3 |
| Ankra2 (ankyrin repeat family A member 2) | 1 | -0.29 | enough cells in well | 205 |
| Axin2 (axin 2) | 1 | 0.13 | enough cells in well | 134 |
| Slc26a9 | 1 | 1.12 | enough cells in well | 167 |
| Ubqlnl (ubiquilin-like) | 1 | – | fewer than 50 cells per well; well left out of calls | 143 |
| Zc3h7a (zinc finger CCCH type containing 7 A) | 1 | 0.9 | enough cells in well | 161 |
| Cd300c2 (CD300C molecule 2) | 1 | 0.43 | enough cells in well | 287 |
| Or2a20 (olfactory receptor family 2 subfamily A member 2) | 1 | -0.15 | enough cells in well | 111 |
| Nras (Nras proto-oncogene, GTPase) | 1 | 0.32 | enough cells in well | 298 |
| Cxadr (coxsackie virus and adenovirus receptor) | 1 | 0.19 | enough cells in well | 240 |
| Aamp (angio-associated migratory protein) | 1 | 1.02 | enough cells in well | 150 |
| Cyren (cell cycle regulator of NHEJ) | 1 | – | fewer than 50 cells per well; well left out of calls | 116 |
| Mical1 | 1 | -0.18 | enough cells in well | 178 |
| Egf (epidermal growth factor) | 1 | -1.03 | enough cells in well | 160 |
| Elmod3 (ELMO/CED-12 domain containing 3) | 1 | 0.73 | enough cells in well | 169 |
| Vps26c (VPS26 endosomal protein sorting factor C) | 1 | 0.23 | enough cells in well | 224 |
| Ppm1h (protein phosphatase 1H (PP2C domain containing)) | 1 | -0.16 | enough cells in well | 141 |
| Atf7ip (activating transcription factor 7 interacting protein) | 1 | -0.24 | enough cells in well | 141 |
| Atf7ip (activating transcription factor 7 interacting protein) | 2 | -0.08 | enough cells in well | 242 |
| Ddx19b (DEAD box helicase 19b) | 1 | – | fewer than 50 cells per well; well left out of calls | 67.1 |
| Tmem39a (transmembrane protein 39a) | 1 | -0.25 | enough cells in well | 297 |
| Snx3 (sorting nexin 3) | 1 | 1.97 | enough cells in well | 201 |
| Sertad4 (SERTA domain containing 4) | 1 | – | fewer than 50 cells per well; well left out of calls | 121 |
| Otc (ornithine transcarbamylase) | 1 | -0.96 | enough cells in well | 176 |
| Aldh1a7 (aldehyde dehydrogenase family 1, subfamily A7) | 1 | -0.32 | enough cells in well | 178 |
| Or2ad1 (olfactory receptor family 2 subfamily AD member 1) | 1 | -0.2 | enough cells in well | 172 |
| Zbp1 (Z-DNA binding protein 1) | 1 | 1.27 | enough cells in well | 247 |
| Dmrt3 (doublesex and mab-3 related transcription factor 3) | 1 | -0.79 | enough cells in well | 178 |
| Il10rb (interleukin 10 receptor, beta) | 1 | 0.06 | enough cells in well | 210 |
| C230012O17Rik (RIKEN cDNA C230012O17 gene) | 1 | 0.59 | enough cells in well | 149 |
| Scd1 (stearoyl-Coenzyme A desaturase 1) | 1 | -1.31 (active) | enough cells in well | 179 |
| Igf2bp1 (insulin-like growth factor 2 mRNA binding protein 1) | 1 | 0 | enough cells in well | 267 |
| Zbbx (zinc finger, B-box domain containing) | 1 | 0.78 | enough cells in well | 159 |
| Emc10 (ER membrane protein complex subunit 10) | 1 | – | fewer than 50 cells per well; well left out of calls | 108 |
| Eif4ebp1 | 1 | -1.39 (active) | enough cells in well | 120 |
| Taf5 (TATA-box binding protein associated factor 5) | 1 | -0.11 | enough cells in well | 170 |
| Or4c127 (olfactory receptor family 4 subfamily C member 127) | 1 | -0.65 | enough cells in well | 145 |
| Crebbp (CREB binding protein) | 1 | -1.03 | enough cells in well | 134 |
| Trerf1 (transcriptional regulating factor 1) | 1 | -0.59 | enough cells in well | 175 |
| Sord (sorbitol dehydrogenase) | 1 | -0.29 | enough cells in well | 227 |
